# Measurements taken from paper PMC5996148.
# The other results are listed elsewhere or left out.
# Key:
# Experiment in all cases: protein microarray (ProtoArray v5.0), streptavidin-Alexa Fluor 647
# Conditions in all cases: 3'-biotin; 20 mM Tris (pH 7.5), 5 mM MgCl2, 100 mM KCl, 0.1% Tween-20, A/T-rich and random oligonucleotide blockers; temperature not stated; high values mean tight binding
# ENO2 (human) = tested on: ENO2 (human)
# ENTPD1 (human) = tested on: ENTPD1 (human)
# EP400NL (human) = tested on: EP400NL (human)
# EPHA3 (human) = tested on: EPHA3 (human)
# ERCC1 (human) = tested on: ERCC1 (human)
# ERCC6L (human) = tested on: ERCC6L (human)
# ERGIC1 (human) = tested on: ERGIC1 (human)
# ETFB (human) = tested on: ETFB (human)
# ETS1 (human) = tested on: ETS1 (human)
# EXOSC7 (human) = tested on: EXOSC7 (human)
# [1] = tested on: Elongation factor 1-gamma (human)
# [2] = tested on: Enhancer of yellow 2 transcription factor homolog (human)
# Erythropoietin (human) = tested on: Erythropoietin (human)
# [3] = tested on: Eukaryotic translation initiation factor 3 subunit E (human)
# [4] = tested on: Exocyst complex component 3 (human)
# FABP3 (human) = tested on: FABP3 (human)
# [5] = tested on: FACT complex subunit SPT16 (human)
# FAM102A (human) = tested on: FAM102A (human)
# FAM106B (human) = tested on: FAM106B (human)
# FAM120B (human) = tested on: FAM120B (human)
sequence,measurement,setting,value
GGGGACAGGGGTATGGGGAGGGG [G4-3 biotinylated (CtG)],binding signal,ENO2 (human),-0.328 z-score
same,binding signal,ENTPD1 (human),-0.31 z-score
same,binding signal,EP400NL (human),-0.341 z-score
same,binding signal,EPHA3 (human),-0.302 z-score
same,binding signal,ERCC1 (human),-0.324 z-score
same,binding signal,ERCC6L (human),-0.328 z-score
same,binding signal,ERGIC1 (human),-0.317 z-score
same,binding signal,ETFB (human),-0.332 z-score
same,binding signal,ETS1 (human),-0.331 z-score
same,binding signal,EXOSC7 (human),-0.335 z-score
same,binding signal,[1],-0.338 z-score
same,binding signal,[2],-0.33 z-score
same,binding signal,Erythropoietin (human),-0.337 z-score
same,binding signal,[3],-0.322 z-score
same,binding signal,[4],-0.341 z-score
same,binding signal,FABP3 (human),-0.334 z-score
same,binding signal,[5],6.59 z-score
same,binding signal,FAM102A (human),-0.311 z-score
same,binding signal,FAM106B (human),-0.331 z-score
same,binding signal,FAM120B (human),-0.298 z-score

# Not a retest: entries from further up.
sequence,measurement,setting,value
GGGGACAGGGGTATGGGGAGGGG [G4-3 biotinylated (CtG)],binding signal,Erythropoietin (human),-0.337 z-score
same,binding signal,[3],-0.322 z-score
same,binding signal,[4],-0.341 z-score
same,binding signal,FABP3 (human),-0.334 z-score
